The conditions of data set [1]: for water content retained at moderate humidity condition: 10%-80% RH, 4-scan DMSG; for water content of the material (DMSG, start of the run): as received, ambient humidity; for moisture sorbed by the amorphous material at 80% RH: second scan. On the procedure:
Approximately 10 mg samples were used in the balance, samples were run as received. The humidity was set at ambient conditions on the day analysis began. […] The scan rate was 3% RH/step. The mass was measured every two minutes and an equilibrium window of 5 points within 0.001 mg. […] The Visual Basic program dmsgscn2.exe was used to control the data collection and export the information to an Excel spreadsheet.
(§1) The humidity was set at ambient conditions on the day analysis began. […] The mass was measured every two minutes and an equilibrium window of 5 points within 0.001 mg.
as §1

For data set [2] the following is noted: cited from earlier work.
The conditions of data set [3]: trituration in aqueous media, or stressed humidity conditions.

Where a name gives a salt, the structure may show the parent alone. Read-outs that look alike come from different tables or passages of the source.

For the compound `CCC[C@@H]1C[C@@H](C(=O)NC(C(C)Cl)C2OC(SC)C(O)C(O)C2O)N(C)C1` (stereo partly drawn) [Form I, 7(S)-chloro-7-deoxylincomycin], the “moisture sorbed from 70% RH to 90% RH” value in data set [1] (first scan, ambient to 90% RH, 25° C.) is “about 2%”. The “humidity range in which the crystalline form is stable” value in data set [1] (moderate humidity condition, 3-scan DMSG) was 10%-90%.
`CCC[C@@H]1C[C@@H](C(=O)N[C@@H]([C@H]2O[C@H](SC)[C@H](O)[C@@H](O)[C@H]2O)[C@H](C)Cl)N(C)C1` [Clindamycin hydrochloride, clindamycin hydrochloride]: the “absorption following oral administration” value in data set [2] was “rapid and nearly complete”.
Regarding `CCC[C@@H]1C[C@@H](C(=O)NC(C(C)Cl)C2OC(SC)C(O)C(O)C2O)N(C)C1` (stereo partly drawn) [Form III, 7(S)-chloro-7-deoxylincomycin], in data set [1], the “water content retained at moderate humidity condition” value is on record as “about 4.5%”. For the same compound, the “water content of the material (DMSG, start of the run)” value in data set [1] (25° C.) is “approximately 4.5%”. Also, in data set [1] (first scan, ambient to 0% RH), the “moisture content lost from ambient down to about 6% RH” value is recorded as “about 1.5%”.
For `CCC[C@@H]1C[C@@H](C(=O)NC(C(C)Cl)C2OC(SC)C(O)C(O)C2O)N(C)C1` (stereo partly drawn) [Form II, 7(S)-chloro-7-deoxylincomycin], the “water content retained at moderate humidity condition” value in data set [1] was “about 2%”. Also, the “water content of the material (DMSG, start of the run)” value in data set [1] (25° C.) is “approximately 2%”. Further, in data set [3], the “conversion of crystal form” value was “convert to Form I”.
As to `CCC[C@@H]1C[C@@H](C(=O)NC(C(C)Cl)C2OC(SC)C(O)C(O)C2O)N(C)C1` (stereo partly drawn) [7(S)-chloro-7-deoxylincomycin, reference compound], the “moisture sorbed by the amorphous material at 80% RH” value in data set [1] (amorphous material obtained from Form II) is “approximately 2%”; in data set [1] (amorphous material obtained from Form III) it was “about 6%”.

The values are drawn from patent US20050192236A1 (priority 2001, published 2005).
